Reference: patent US20120083486A1, “KIT, COMPOSITION, PRODUCT OR MEDICAMENT FOR TREATING COGNITIVE IMPAIRMENT” (ZENYAKU KOGYO KABUSHIKIKAISHA, priority 2008, published 2012)

Tested on: scopolamine-induced cognitive impairment
Experiment: passive avoidance task, scopolamine-induced cognitive impairment in mice
Assay type: in vivo
Settings: scopolamine 1 mg/kg i.p. + 1% CMC, compared with 1% CMC and saline group; P<0.01
Protocol: Eight to nine week old male ICR strain mice (Charles River Laboratories Japan, Inc.) were used in the experiment. They were housed in a cage in groups of 3 or 4 mice, in a room maintained at around 22 degree C. under 12 hour light/dark cycles. Food and water were provided ad libitum. All animal care and treatment was conducted in accordance with the Guidelines for the Care and Use of Laboratory Animals, established at the Central Research Laboratory, Zenyaku Kogyo Co., Ltd.
Compound 1 and donepezil were suspended in 1% carboxymethyl cellulose (CMC). […] For the coadministration studies of Compound 1 and donepezil, both drug suspensions were mixed together and this mixed suspension was […]. All drugs were prepared immediately before use and orally administered at a dosage of 10 ml/kg.
The passive avoidance apparatus (Neuroscience Inc.) consisted of an illuminated chamber and a larger dark chamber. Two chambers were separated by a guillotine door. Oral administration of compound 1 at doses of 0.0001 mg/kg or 0.001 mg/kg and/or donepezil at doses of 0.01 and 0.1 mg/kg was given 60 min before the acquisition trial. […] The matched control group only received the vehicle. […] The interval between placement in the illuminated chamber and entry into the dark chamber was measured as step through latency (maximum 300 seconds). […]

**Q.** Which “step-through latency in retention trial” value does the source give for CN1[C@@H]2C[C@@H](OC(=O)[C@H](CO)c3ccccc3)C[C@H]1[C@@H]1O[C@@H]12 [scopolamine] here?
**A.** Its value is “markedly shorter”.
